This passage reports Etch resistance and Sensitivity results from US20230096137A1, “COMPOSITION FOR LITHOGRAPHY AND PATTERN FORMATION METHOD” (Mitsubishi Gas Chemical Company, Inc., priority 2020, published 2023).

The structures appear in SMILES notation.

Data set [1] in a line: Etching resistance relative to novolac PSM4357 underlayer film. The following applies: Ar/CF4/O2 50:5:5 sccm, 50 W, 20 Pa, 2 min; vs novolac PSM4357.
Data set [2] can be described thus: EUV sensitivity - TMAH aqueous solution development. The following applies: resist MAR1 on 100 nm underlayer film, 2.38% TMAH development 60 seconds.

Turning to `CC(C)(COc1c(I)cc(N2CC=CC2)cc1I)COc1c(I)cc(N2CC=CC2)cc1I` [BMI-1], in data set [1], the Etch resistance result was “C (The difference in etching rate is larger than 10% as compared with that of the underlayer film of novolac in terms of the ratio to novolac.)”. This molecule also displayed a Sensitivity in data set [2] of 19 mJ/cm2.

With `Cc1cc(C(c2ccc(I)cc2)c2cc(C)c(O)c(C)c2)cc(C)c1O` [BisB-1], the Etch resistance result in data set [1] is given as “B (The difference in etching rate is within ±10% as compared with that of the underlayer film of novolac in terms of the ratio to novolac.)”. In data set [2], this molecule displayed a Sensitivity of 25 mJ/cm2.

For the molecule `Oc1ccc(-c2ccc(O)c(C(c3cc(-c4ccc(O)cc4)ccc3O)c3cc(I)cc(I)c3O)c2)cc1` [BisB-2], the Etch resistance entry in data set [1] is on record as “B (The difference in etching rate is within ±10% as compared with that of the underlayer film of novolac in terms of the ratio to novolac.)”. The Sensitivity in data set [2] came out at 23 mJ/cm2.

As to `Oc1ccc2c3c(ccc2c1I)Oc1ccc2c(I)c(O)ccc2c1C3c1ccc(-c2ccccc2)cc1` [XBisN-3], the Etch resistance result in data set [1] was “A (The difference in etching rate is smaller than that of the underlayer film of novolac by 10% or more in terms of the ratio to novolac.)”. The molecule further returned a Sensitivity in data set [2] of 23 mJ/cm2.

As to `Oc1ccc2c3c(ccc2c1)Oc1ccc2cc(O)ccc2c1C3c1ccc(-c2ccccc2)cc1` [XBisN-C1, reference compound], the Etch resistance result in data set [1] was “A (The difference in etching rate is smaller than that of the underlayer film of novolac by 10% or more in terms of the ratio to novolac.)”. Besides, the Sensitivity in data set [2] stood at 31 mJ/cm2.

On to `Oc1ccc2c3c(ccc2c1)Oc1ccc2cc(O)ccc2c1C3c1cccc(I)c1` [XbisN-1], for which the Etch resistance entry in data set [1] is listed as “A (The difference in etching rate is smaller than that of the underlayer film of novolac by 10% or more in terms of the ratio to novolac.)”. The molecule further showed a Sensitivity in data set [2] of 24 mJ/cm2.
